In patent publication US5654179A, “Nucleic acid preparation methods” (HRI Research, Inc., priority 1994, dated 1997):
For at least one compound, name, drawing or mass did not settle the structure.

Test system: Taq polymerase
Test: PCR inhibition, SK38/39 system, 115-mer product on ethidium bromide gel or autoradiograph
Assay type: biochemical
Procedure: Generally, PCR was carried out using 175-200 μM dNTPS (deoxyribonucleoside 5'-triphosphates) and 0.5 to 1.0 μM primers. Five units/100 μl of Taq polymerase were used. PCR reactions were overlaid with 30-100 μl light mineral oil. A typical PCR cycle for HIV amplification using a Perkin-Elmer Cetus DNA Thermal Cycler (Part No. N8010150) was: denaturation at 95° C. for 30 seconds; annealing at 55° C. for 30 seconds; and extension at 72° C. for 1 minute. PCR cycles were normally carried out in this manner for 35 cycles followed by 7 minutes at 72° C.
In other cases, amplification of HIV sequences was performed using primer pair SK-38 (SEQ ID NO:5) and SK-39 (SEQ ID NO:6) and 115-mer (SEQ ID NO:7) as target to produce a 115-mer product.
Where agarose gel electrophoresis was used, the PCR products were fractionated by electrophoresis through a 3% Nusieve/1% agarose gel in TBE buffer. Electrophoresis was typically carried out in a constant voltage of 8-10 V/cm. Following agarose gel electrophoresis, individual bands were, in most cases, visualized by ethidium bromide staining. This involved staining the agarose gel with 1 μg/ml ethidium bromide in TBE for 30 minutes followed by destaining the agarose gel with TBE for 30 minutes.
The chemical reaction was performed as follows. […]

Question: Which results are given for `O=C1O[C@H]([C@@H](O)CO)C(O)=C1O` [ascorbate]?
Answer: PCR product band compared with ascorbate tubes without photochemical treatment (ascorbate plus irradiation (HRI-100, 4 hours)): stronger PCR product band; PCR product (hemolyzed plasma with 8.4 mM ascorbate, 37° C. 5 hours, except at 125 μM heme): product was visible
